Source: PubChem BioAssay AID1259308 (NCATS, 2017)
Here is a random part of about 59,000 deposited reagents. About 1,510 of all reagents (2.6%) count as active. 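Calls use total luciferase alone and ignore viability, so some active siRNAs may act by altering cell number.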 Unmarked entries are inactive. Reagents against one gene are numbered here. Further read-outs or replicates are left out here.

- Test: 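Knock-downs that increase output of a recombinant reporter protein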 (primary screen)
- Cell system: human HEK293 embryonic kidney cells stably expressing firefly luciferase (HEK-CMV-Luc2-Hygro)
- Reagents: single siRNA against human genes, 0.8 pmol siRNA per well
- Duration: 72 h
- Read-out: 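Reporter luminescence and viable-cell signal on separate replicate plates, given as percent of non-targeting control and median/MAD z-scores, plus per-cell luciferase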
- Reading the numbers: total luciferase, z-score and total luciferase, % of control: higher = more reporter protein produced
- Hit rule: 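Active when the median/MAD z-score for overall luciferase is greater than 3; a gene was taken forward for validation with new siRNAs if at least two of its three siRNAs passed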
- Calls: active = raised luciferase; inactive = no rise

How did the screen score BACE2 (beta-secretase 2) #1?
total luciferase, z-score: -1.24; total luciferase, % of control: 57.2

What did the screen give for BACE2 (beta-secretase 2) #2?
total luciferase, z-score: -0.0675; total luciferase, % of control: 80.5

For BACE2 (beta-secretase 2) #3, how do the results read?
total luciferase, z-score: 1.09; total luciferase, % of control: 104

For CDKN2D (cyclin dependent kinase inhibitor 2D) #1, how do the results read?
total luciferase, z-score: -0.279; total luciferase, % of control: 76.3

For CDKN2D (cyclin dependent kinase inhibitor 2D) #2, how do the results read?
total luciferase, z-score: -0.904; total luciferase, % of control: 63.9

Which result is listed for CDKN2D (cyclin dependent kinase inhibitor 2D) #3?
total luciferase, z-score: -1.29; total luciferase, % of control: 56.2

With CRYBG3 (crystallin beta-gamma domain containing 3) #1, how do the results read?
total luciferase, z-score: 0.904; total luciferase, % of control: 99.9

With CRYBG3 (crystallin beta-gamma domain containing 3) #2, what was measured?
total luciferase, z-score: -0.366; total luciferase, % of control: 74.6

With CRYBG3 (crystallin beta-gamma domain containing 3) #3, what does the deposit list?
total luciferase, z-score: -1.01; total luciferase, % of control: 61.8

Which result is listed for NPRL3 (NPR3 like, GATOR1 complex subunit) #1?
total luciferase, z-score: -0.814; total luciferase, % of control: 65.7

Which result is listed for NPRL3 (NPR3 like, GATOR1 complex subunit) #2?
total luciferase, z-score: -0.275; total luciferase, % of control: 76.4

How did the screen score NPRL3 (NPR3 like, GATOR1 complex subunit) #3?
total luciferase, z-score: 1.26; total luciferase, % of control: 107

How did the screen score AMER1 (APC membrane recruitment protein 1) #1?
total luciferase, z-score: 0.587; total luciferase, % of control: 93.6

What is on record for AMER1 (APC membrane recruitment protein 1) #2?
total luciferase, z-score: -0.853; total luciferase, % of control: 64.9

With AMER1 (APC membrane recruitment protein 1) #3, what was measured?
total luciferase, z-score: 0.892; total luciferase, % of control: 99.6

With OR2G6 (olfactory receptor family 2 subfamily G member 6) #1, what was measured?
total luciferase, z-score: -0.166; total luciferase, % of control: 78.6

With OR2G6 (olfactory receptor family 2 subfamily G member 6) #2, what does the deposit list?
total luciferase, z-score: 0.229; total luciferase, % of control: 86.4

For OR2G6 (olfactory receptor family 2 subfamily G member 6) #3, what does the deposit list?
total luciferase, z-score: -0.251; total luciferase, % of control: 76.9

Which result is listed for BTN3A2 (butyrophilin subfamily 3 member A2) #1?
total luciferase, z-score: 0.059; total luciferase, % of control: 83.1

What is on record for BTN3A2 (butyrophilin subfamily 3 member A2) #2?
total luciferase, z-score: -0.0871; total luciferase, % of control: 80.2

What did the screen give for BTN3A2 (butyrophilin subfamily 3 member A2) #3?
total luciferase, z-score: -0.776; total luciferase, % of control: 66.5

2 of these entries, reformatted.
gene knocked down	siRNA no.	total luciferase, z-score	total luciferase, % of control
NPRL3 (NPR3 like, GATOR1 complex subunit)	1	-0.814	65.7
NPRL3 (NPR3 like, GATOR1 complex subunit)	2	-0.275	76.4

The listing continues:
With ST8SIA5 (ST8 alpha-N-acetyl-neuraminide alpha-2,8-sialyltransferase 5) #1, how do the results read?
total luciferase, z-score: 0.812; total luciferase, % of control: 98

For ST8SIA5 (ST8 alpha-N-acetyl-neuraminide alpha-2,8-sialyltransferase 5) #2, what does the deposit list?
total luciferase, z-score: -0.514; total luciferase, % of control: 71.7

For ST8SIA5 (ST8 alpha-N-acetyl-neuraminide alpha-2,8-sialyltransferase 5) #3, what was measured?
total luciferase, z-score: -0.493; total luciferase, % of control: 72.1

What did the screen give for KLRC1 (killer cell lectin like receptor C1) #1?
total luciferase, z-score: -0.303; total luciferase, % of control: 75.9

Which result is listed for KLRC1 (killer cell lectin like receptor C1) #2?
total luciferase, z-score: -0.768; total luciferase, % of control: 66.6

What did the screen give for KLRC1 (killer cell lectin like receptor C1) #3?
total luciferase, z-score: -0.0229; total luciferase, % of control: 81.4

For CCDC59 (coiled-coil domain containing 59) #1, what was measured?
total luciferase, z-score: -0.913; total luciferase, % of control: 63.7

What is on record for CCDC59 (coiled-coil domain containing 59) #2?
total luciferase, z-score: -0.106; total luciferase, % of control: 79.8

Which result is listed for CCDC59 (coiled-coil domain containing 59) #3?
total luciferase, z-score: -0.0178; total luciferase, % of control: 81.5

What is on record for STAP1 (signal transducing adaptor family member 1) #1?
total luciferase, z-score: -0.471; total luciferase, % of control: 72.5

What is on record for STAP1 (signal transducing adaptor family member 1) #2?
total luciferase, z-score: 1.65; total luciferase, % of control: 115

What is on record for STAP1 (signal transducing adaptor family member 1) #3?
total luciferase, z-score: 0.238; total luciferase, % of control: 86.6
